Experimental data reported in US20260284208A1, “SYSTEM” (Oxford University Innovation Limited, priority 2023, published 2026).
Further values from the same series stand in other lists.

System: library of 8,380 IKZF3 degrons (ZF-eGFP/mCherry reporter) in Jurkat cells
Assay: Pooled library screen (FACS, NGS, limma voom LogFC of positive vs negative read counts)
Format: cell-based, human
Protocol: A library of 8,380 IKZF3 degrons was cloned into pLVX-Sprout to create the eGFP/mCherry protein degradation reporter plasmid pool. A lentivirus pool was then generated using the Lenti-X lentiviral vector production method.
Jurkat cells were transduced at a multiplicity of infection of <0.3 with the lentivirus vector library in order to maximise the number of cells with a single integration. Transductions were carried out in 6 well TC-treated cell culture dishes (Falcon) with 3×10^6 cells per well. Cells were incubated for 2 days at 37° C. and 5% CO2 before the supernatant was removed and replaced with fresh media. 6 days post-transduction, mCherry+ cells were isolated via FACS using the FACS Aria Fusion (BD) in a buffer containing PBS (Gibco), 2 mM EDTA (Gibco), 25 mM HEPES (Sigma) and 1% BSA (Sigma). 8 days later, cells were treated with DMSO or a thalidomide analog for 18 hours at 37° C. and 5% CO2. mCherry+GFPlow and NOT(mCherry+GFPlow) cells were sorted by FACS using the FACS Aria Fusion (BD). DMSO treated cells were used to set the mCherry+GFPlow gate and dead cells were excluded from sorting by staining cells with 1 μg/mL DAPI (ThermoFisher). gDNA was isolated using the Maxwell RSC 48 (Promega). gDNA from cells that were unsorted and untreated were also isolated to determine the library representation on the day of compound treatment. Throughout the screen >600× coverage of the library was maintained. 3 biological replicates were carried out with a new transduction taking place each time.
A two-step PCR was used where the first PCR (PCR1) amplified the integrated degron sequence from gDNA and the second PCR (PCR2) added Illumina adaptors and barcodes to permit multiplexing. See Supp F for PCR1 and PCR2 primers. Q5 Hot Start High-Fidelity 2× Master Mix (New England Biolabs) was used for both PCRs. Sufficient gDNA was amplified in PCR1 in order to maintain >600× coverage and amplicons were purified using solid phase reversible immobilization (SPRI) beads (Beckman Coulter). Purified PCR1 products were analysed on the Tapestation 4200 (Agilent) to confirm purity prior to proceeding to PCR2. Sufficient PCR1 product was amplified in PCR2 in order to maintain >600× coverage and amplicons were run on a 2% agarose TAE gel. Target bands were excised and purified using the NucleoSpin Gel and PCR Clean-up Kit (Machery Nagel). Amplicons were analysed on the Tapestation 4200 and quantified using Qubit dsDNA HS kit (ThermoFisher). PCR products were pooled and sequenced as paired-reads on the NovaSeq (Illumina) using a SP2 200 cycles kit (Illumina).
Count distributions, percentage of read mapping, library coverage and replicate correlation per sample were assessed for QC purposes.
To carry out the library screen, we used the same plasmid construct as in our earlier flow cytometry assays, but pooling all 8,380 mutants together into one Jurkat population, ensuring a copy number of one plasmid per cell (FIG. 4B). […] These GFP-negative cells were then separated from the remaining GFP-positive population using fluorescence activated cell sorting (FACS). These two populations were then sequenced and the relative abundance of every mutant in both populations compared to provide a log FC value for each mutant sequence. This value indicated how frequently a sequence is observed in the GFP-negative population relative to the GFP-positive population, and therefore how effective a degron it is for that particular IMID compound.

`O=C1CCC(N2C(=O)c3ccccc3C2=O)C(=O)N1` (centres unmarked) [A32, 2-(2,6-dioxopiperidin-3-yl)isoindoline-1,3-dione] was tested, and the A32_logFC (Degron-ID 3113, SEQ ID NO 47, 46F_47Q_49P_50V_52G_53A_54Q_55F_67L) was 3.59, the A32_logFC (Degron-ID 3114, SEQ ID NO 38, 46F_47Q_49P_50V_52G_53A_54R_55F_67L) was 3.633 and the A32_logFC (Degron-ID 3115, SEQ ID NO 45, 46F_47Q_49P_50V_52G_53A_54S_55F_67L) was 3.602. The A32_logFC (Degron-ID 3117, SEQ ID NO 17, 46F_47Q_49P_50V_52G_53A_54V_55F_67L) was 3.746, the A32_logFC (Degron-ID 3232, SEQ ID NO 40, 46F_47R_49E_50V_52G_53A_54P_55F_67L) was 3.617 and the A32_logFC (Degron-ID 3672, SEQ ID NO 170, 46F_47T_49E_50I_52G_53A_54P_55F_67L) was 3.17. The A32_logFC (Degron-ID 3674, SEQ ID NO 147, 46F_47T_49E_50I_52G_53A_54R_55F_67L) was 3.233, the A32_logFC (Degron-ID 3715, SEQ ID NO 187, 46F_47T_49E_50V_52G_53A_54S_55F_67L) was 3.121 and the A32_logFC (Degron-ID 3792, SEQ ID NO 140, 46F_47T_49P_50I_52G_53A_54P_55F_67L) was 3.253. It also gave an A32_logFC (Degron-ID 3795, SEQ ID NO 149, 46F_47T_49P_50I_52G_53A_54S_55F_67L) of 3.228, an A32_logFC (Degron-ID 3900, SEQ ID NO 180, 46F_47V_49E_50I_52G_53A_54A_55F_67L) of 3.155 and an A32_logFC (Degron-ID 3905, SEQ ID NO 151, 46F_47V_49E_50I_52G_53A_54G_55F_67L) of 3.227. For the same compound, the A32_logFC (Degron-ID 3912, SEQ ID NO 33, 46F_47V_49E_50I_52G_53A_54P_55F_67L) was 3.651, the A32_logFC (Degron-ID 3913, SEQ ID NO 152, 46F_47V_49E_50I_52G_53A_54Q_55F_67L) was 3.224 and the A32_logFC (Degron-ID 4072, SEQ ID NO 162, 46F_47V_49P_50V_52G_53A_54P_55F_67L) was 3.195. The A32_logFC (Degron-ID 6327, SEQ ID NO 166, 46F_47Q_49P_50I_52G_53R_54I_55F_67L) was 3.177, the A32_logFC (Degron-ID 6495, SEQ ID NO 189, 46L_47C_49P_50I_52G_53F_54S_55C_67L) was 3.115 and the A32_logFC (Degron-ID 6499, SEQ ID NO 144, 46L_47C_49P_50I_52G_53F_54Y_55C_67L) was 3.24. For the same compound, the A32_logFC (Degron-ID 6520, SEQ ID NO 171, 46L_47E_49P_50I_52G_53F_54A_55C_67L) was 3.17, the A32_logFC (Degron-ID 6533, SEQ ID NO 178, 46L_47E_49P_50I_52G_53F_54Q_55C_67L) was 3.157 and the A32_logFC (Degron-ID 6534, SEQ ID NO 39, 46L_47E_49P_50I_52G_53F_54R_55C_67L) was 3.621. For the same compound, the A32_logFC (Degron-ID 6535, SEQ ID NO 42, 46L_47E_49P_50I_52G_53F_54S_55C_67L) was 3.615, the A32_logFC (Degron-ID 6615, SEQ ID NO 163, 46L_47I_49P_50I_52G_53F_54S_55C_67L) was 3.185 and the A32_logFC (Degron-ID 6701, SEQ ID NO 44, 46L_47Q_49P_50I_52G_53F_54C_55C_67L) was 3.606. The A32_logFC (Degron-ID 6704, SEQ ID NO 183, 46L_47Q_49P_50I_52G_53F_54F_55C_67L) was 3.135, the A32_logFC (Degron-ID 6705, SEQ ID NO 148, 46L_47Q_49P_50I_52G_53F_54G_55C_67L) was 3.23 and the A32_logFC (Degron-ID 6709, SEQ ID NO 150, 46L_47Q_49P_50I_52G_53F_54L_55C_67L) was 3.228. The A32_logFC (Degron-ID 6712, SEQ ID NO 188, 46L_47Q_49P_50I_52G_53F_54P_55C_67L) was 3.119, the A32_logFC (Degron-ID 6716, SEQ ID NO 31, 46L_47Q_49P_50I_52G_53F_54T_55C_67L) was 3.661 and the A32_logFC (Degron-ID 6717, SEQ ID NO 15, 46L_47Q_49P_50I_52G_53F_54V_55C_67L) was 3.757. For the same compound, the A32_logFC (Degron-ID 6779, SEQ ID NO 145, 46L_47T_49P_50I_52G_53F_54Y_55C_67L) was 3.236, the A32_logFC (Degron-ID 6785, SEQ ID NO 165, 46L_47V_49P_50I_52G_53F_54G_55C_67L) was 3.183 and the A32_logFC (Degron-ID 6793, SEQ ID NO 195, 46L_47V_49P_50I_52G_53F_54Q_55C_67L) was 3.089. It also gave an A32_logFC (Degron-ID 6794, SEQ ID NO 160, 46L_47V_49P_50I_52G_53F_54R_55C_67L) of 3.202, an A32_logFC (Degron-ID 6796, SEQ ID NO 154, 46L_47V_49P_50I_52G_53F_54T_55C_67L) of 3.215 and an A32_logFC (Degron-ID 7674, SEQ ID NO 181, 46L_47E_49E_50I_52G_53F_54R_55C_67L) of 3.152. The A32_logFC (Degron-ID 7755, SEQ ID NO 143, 46L_47I_49E_50I_52G_53F_54S_55C_67L) was 3.243, the A32_logFC (Degron-ID 7756, SEQ ID NO 184, 46L_47I_49E_50I_52G_53F_54T_55C_67L) was 3.132 and the A32_logFC (Degron-ID 7841, SEQ ID NO 186, 46L_47Q_49E_50I_52G_53F_54C_55C_67L) was 3.127. The A32_logFC (Degron-ID 7847, SEQ ID NO 155, 46L_47Q_49E_50I_52G_53F_54I_55C_67L) was 3.214, the A32_logFC (Degron-ID 7850, SEQ ID NO 169, 46L_47Q_49E_50I_52G_53F_54M_55C_67L) was 3.171 and the A32_logFC (Degron-ID 7856, SEQ ID NO 35, 46L_47Q_49E_50I_52G_53F_54T_55C_67L) was 3.649. For the same compound, the A32_logFC (Degron-ID 7915, SEQ ID NO 161, 46L_47T_49E_50I_52G_53F_54S_55C_67L) was 3.196, the A32_logFC (Degron-ID 7916, SEQ ID NO 182, 46L_47T_49E_50I_52G_53F_54T_55C_67L) was 3.136 and the A32_logFC (Degron-ID 7920, SEQ ID NO 194, 46L_47V_49E_50I_52G_53F_54A_55C_67L) was 3.091. The A32_logFC (Degron-ID 7933, SEQ ID NO 185, 46L_47V_49E_50I_52G_53F_54Q_55C_67L) was 3.132 and the A32_logFC (Degron-ID 7936, SEQ ID NO 159, 46L_47V_49E_50I_52G_53F_54T_55C_67L) was 3.205.
